Assay results published in the supplement of paper PMC10849652.
This is one part of the list.

Sequences of proteins named here, by UniProt entry; tags and fusion partners are left off. A change or cut given only in a name is not applied to a line headed by its entry.
UniProt Q96CP2: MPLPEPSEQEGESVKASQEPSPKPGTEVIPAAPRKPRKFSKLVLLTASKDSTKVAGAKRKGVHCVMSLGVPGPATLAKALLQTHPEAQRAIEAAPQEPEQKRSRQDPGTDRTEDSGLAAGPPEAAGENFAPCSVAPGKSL
UniProt Q14192: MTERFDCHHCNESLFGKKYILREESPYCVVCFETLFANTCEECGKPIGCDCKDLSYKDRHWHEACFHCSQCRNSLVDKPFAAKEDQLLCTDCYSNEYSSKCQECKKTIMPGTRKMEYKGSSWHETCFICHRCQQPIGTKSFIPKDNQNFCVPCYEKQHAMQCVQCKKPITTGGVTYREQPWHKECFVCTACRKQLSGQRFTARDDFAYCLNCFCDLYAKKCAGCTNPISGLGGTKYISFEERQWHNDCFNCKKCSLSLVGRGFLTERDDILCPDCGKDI
UniProt Q9UK22: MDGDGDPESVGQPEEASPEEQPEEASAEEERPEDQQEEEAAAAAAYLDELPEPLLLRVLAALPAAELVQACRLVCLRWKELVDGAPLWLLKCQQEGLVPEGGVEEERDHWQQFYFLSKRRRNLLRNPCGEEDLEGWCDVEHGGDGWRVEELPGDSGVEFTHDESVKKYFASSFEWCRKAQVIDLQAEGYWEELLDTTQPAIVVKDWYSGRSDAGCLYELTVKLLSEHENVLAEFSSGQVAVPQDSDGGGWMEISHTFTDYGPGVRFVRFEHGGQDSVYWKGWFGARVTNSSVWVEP
UniProt Q9Y3D6: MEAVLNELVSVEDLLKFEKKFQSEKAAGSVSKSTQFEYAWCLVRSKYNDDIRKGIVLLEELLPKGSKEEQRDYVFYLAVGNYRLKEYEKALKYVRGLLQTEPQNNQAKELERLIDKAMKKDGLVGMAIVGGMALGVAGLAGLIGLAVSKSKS
UniProt Q17RN3: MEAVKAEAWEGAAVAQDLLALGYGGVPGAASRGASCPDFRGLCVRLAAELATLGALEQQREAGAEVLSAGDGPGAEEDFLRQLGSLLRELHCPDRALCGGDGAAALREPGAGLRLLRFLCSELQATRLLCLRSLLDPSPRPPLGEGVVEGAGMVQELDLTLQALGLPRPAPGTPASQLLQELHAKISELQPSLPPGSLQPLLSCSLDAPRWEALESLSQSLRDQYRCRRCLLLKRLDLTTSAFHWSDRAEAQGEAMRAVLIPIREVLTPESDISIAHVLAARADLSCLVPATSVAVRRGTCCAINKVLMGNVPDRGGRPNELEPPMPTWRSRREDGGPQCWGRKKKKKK
UniProt Q8TF40: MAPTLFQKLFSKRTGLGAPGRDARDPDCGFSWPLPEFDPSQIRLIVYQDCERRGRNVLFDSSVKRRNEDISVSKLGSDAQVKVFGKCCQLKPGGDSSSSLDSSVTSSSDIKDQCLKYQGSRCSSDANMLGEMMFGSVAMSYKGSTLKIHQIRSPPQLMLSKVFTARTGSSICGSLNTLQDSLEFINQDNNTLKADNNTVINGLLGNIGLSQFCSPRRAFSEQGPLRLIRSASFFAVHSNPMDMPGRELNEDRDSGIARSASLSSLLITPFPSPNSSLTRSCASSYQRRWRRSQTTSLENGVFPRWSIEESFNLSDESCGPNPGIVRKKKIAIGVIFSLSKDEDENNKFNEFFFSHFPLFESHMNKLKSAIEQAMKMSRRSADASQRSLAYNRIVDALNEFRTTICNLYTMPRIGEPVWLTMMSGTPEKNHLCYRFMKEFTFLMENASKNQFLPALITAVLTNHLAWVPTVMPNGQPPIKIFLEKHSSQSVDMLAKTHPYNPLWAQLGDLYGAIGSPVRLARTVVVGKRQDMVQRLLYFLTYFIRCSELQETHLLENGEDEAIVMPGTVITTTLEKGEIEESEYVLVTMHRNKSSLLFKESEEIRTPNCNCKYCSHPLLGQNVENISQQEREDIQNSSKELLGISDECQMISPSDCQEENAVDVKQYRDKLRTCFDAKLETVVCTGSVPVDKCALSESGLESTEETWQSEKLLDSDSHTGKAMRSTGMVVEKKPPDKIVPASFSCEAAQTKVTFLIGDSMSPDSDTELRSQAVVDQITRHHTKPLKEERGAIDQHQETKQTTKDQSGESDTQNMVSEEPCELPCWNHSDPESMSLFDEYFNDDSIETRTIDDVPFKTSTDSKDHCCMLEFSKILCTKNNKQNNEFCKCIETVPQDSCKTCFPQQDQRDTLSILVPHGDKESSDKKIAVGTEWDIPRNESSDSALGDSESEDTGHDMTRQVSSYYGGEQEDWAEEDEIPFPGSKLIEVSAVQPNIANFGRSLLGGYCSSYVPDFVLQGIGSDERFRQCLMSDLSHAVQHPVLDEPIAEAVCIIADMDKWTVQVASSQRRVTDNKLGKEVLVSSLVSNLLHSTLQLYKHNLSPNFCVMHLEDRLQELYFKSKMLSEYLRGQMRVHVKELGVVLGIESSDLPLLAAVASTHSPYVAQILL
UniProt O95684: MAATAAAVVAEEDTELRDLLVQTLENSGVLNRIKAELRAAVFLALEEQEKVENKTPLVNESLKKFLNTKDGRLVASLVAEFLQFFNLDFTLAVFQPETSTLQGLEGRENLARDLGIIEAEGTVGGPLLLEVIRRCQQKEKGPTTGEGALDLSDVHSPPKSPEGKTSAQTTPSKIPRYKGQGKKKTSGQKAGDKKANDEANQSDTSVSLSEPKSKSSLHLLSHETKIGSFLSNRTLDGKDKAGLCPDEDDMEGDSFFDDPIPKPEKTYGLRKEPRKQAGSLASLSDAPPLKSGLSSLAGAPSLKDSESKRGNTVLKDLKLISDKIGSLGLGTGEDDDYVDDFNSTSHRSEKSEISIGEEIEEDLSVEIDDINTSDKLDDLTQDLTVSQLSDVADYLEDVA
UniProt Q02790: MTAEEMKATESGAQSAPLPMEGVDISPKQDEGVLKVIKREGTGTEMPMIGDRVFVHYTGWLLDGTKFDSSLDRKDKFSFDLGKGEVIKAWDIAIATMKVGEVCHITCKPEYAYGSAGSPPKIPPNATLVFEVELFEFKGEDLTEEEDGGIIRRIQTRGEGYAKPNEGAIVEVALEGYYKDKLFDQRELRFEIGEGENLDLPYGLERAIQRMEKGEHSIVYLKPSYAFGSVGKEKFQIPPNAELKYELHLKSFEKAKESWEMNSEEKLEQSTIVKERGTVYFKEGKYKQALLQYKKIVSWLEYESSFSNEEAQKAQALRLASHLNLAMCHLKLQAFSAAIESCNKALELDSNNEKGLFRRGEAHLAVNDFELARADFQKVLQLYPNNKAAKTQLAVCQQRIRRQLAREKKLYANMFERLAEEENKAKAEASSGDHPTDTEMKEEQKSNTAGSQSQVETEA
UniProt Q9H479: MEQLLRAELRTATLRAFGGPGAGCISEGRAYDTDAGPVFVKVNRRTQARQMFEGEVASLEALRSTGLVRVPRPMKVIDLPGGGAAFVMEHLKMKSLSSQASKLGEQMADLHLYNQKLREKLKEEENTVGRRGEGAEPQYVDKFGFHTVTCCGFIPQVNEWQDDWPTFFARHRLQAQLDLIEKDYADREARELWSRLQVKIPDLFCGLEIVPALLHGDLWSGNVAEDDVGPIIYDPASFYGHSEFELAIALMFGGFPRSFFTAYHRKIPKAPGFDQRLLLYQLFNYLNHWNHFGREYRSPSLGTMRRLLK
UniProt Q9UK97: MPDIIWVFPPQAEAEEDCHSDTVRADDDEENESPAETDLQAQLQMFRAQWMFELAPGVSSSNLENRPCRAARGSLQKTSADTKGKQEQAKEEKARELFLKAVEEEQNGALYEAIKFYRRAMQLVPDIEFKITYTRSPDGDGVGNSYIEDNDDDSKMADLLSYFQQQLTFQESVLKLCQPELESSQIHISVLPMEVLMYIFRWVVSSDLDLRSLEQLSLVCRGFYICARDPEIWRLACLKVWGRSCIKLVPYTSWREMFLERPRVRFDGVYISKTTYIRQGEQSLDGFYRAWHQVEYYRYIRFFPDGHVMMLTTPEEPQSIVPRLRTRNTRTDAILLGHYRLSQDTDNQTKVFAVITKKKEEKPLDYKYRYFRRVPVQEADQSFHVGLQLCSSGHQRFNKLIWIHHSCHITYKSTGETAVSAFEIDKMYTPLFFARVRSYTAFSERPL
UniProt Q92913: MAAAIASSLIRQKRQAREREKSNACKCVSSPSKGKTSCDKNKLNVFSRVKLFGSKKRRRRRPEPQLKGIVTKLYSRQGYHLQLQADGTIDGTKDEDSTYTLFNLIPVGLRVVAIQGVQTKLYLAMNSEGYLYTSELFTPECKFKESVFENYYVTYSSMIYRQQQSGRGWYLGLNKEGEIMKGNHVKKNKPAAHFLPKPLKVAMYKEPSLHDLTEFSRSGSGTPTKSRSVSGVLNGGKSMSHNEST
UniProt Q9Y613: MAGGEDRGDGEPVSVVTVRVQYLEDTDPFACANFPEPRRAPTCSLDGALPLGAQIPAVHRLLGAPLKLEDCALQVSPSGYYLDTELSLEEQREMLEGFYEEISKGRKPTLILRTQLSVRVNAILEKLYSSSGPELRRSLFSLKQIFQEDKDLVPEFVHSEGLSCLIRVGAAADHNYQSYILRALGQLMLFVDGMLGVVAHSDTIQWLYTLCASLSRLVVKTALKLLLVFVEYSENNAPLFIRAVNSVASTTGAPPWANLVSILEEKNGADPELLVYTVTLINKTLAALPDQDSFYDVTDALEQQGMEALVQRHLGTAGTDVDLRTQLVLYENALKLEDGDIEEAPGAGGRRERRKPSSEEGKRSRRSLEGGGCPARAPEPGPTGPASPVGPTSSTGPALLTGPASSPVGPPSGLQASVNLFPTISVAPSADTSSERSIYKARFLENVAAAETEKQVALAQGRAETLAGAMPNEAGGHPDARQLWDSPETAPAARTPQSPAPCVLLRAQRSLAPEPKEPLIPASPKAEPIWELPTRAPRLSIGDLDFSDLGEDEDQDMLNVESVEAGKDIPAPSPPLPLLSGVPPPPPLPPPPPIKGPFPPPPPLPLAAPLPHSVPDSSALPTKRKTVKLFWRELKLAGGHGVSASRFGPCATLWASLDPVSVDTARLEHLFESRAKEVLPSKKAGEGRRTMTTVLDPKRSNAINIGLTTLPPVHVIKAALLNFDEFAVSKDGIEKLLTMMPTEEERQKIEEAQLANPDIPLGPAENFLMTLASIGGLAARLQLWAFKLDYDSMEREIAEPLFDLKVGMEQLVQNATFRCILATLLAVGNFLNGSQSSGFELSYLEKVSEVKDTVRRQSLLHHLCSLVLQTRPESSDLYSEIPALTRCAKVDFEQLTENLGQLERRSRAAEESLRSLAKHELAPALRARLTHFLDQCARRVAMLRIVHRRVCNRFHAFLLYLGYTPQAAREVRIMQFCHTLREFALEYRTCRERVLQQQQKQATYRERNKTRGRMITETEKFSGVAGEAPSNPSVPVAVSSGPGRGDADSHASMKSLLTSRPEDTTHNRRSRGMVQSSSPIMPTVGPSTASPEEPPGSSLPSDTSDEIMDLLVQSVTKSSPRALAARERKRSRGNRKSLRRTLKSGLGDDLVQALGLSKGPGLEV
UniProt Q8TB52: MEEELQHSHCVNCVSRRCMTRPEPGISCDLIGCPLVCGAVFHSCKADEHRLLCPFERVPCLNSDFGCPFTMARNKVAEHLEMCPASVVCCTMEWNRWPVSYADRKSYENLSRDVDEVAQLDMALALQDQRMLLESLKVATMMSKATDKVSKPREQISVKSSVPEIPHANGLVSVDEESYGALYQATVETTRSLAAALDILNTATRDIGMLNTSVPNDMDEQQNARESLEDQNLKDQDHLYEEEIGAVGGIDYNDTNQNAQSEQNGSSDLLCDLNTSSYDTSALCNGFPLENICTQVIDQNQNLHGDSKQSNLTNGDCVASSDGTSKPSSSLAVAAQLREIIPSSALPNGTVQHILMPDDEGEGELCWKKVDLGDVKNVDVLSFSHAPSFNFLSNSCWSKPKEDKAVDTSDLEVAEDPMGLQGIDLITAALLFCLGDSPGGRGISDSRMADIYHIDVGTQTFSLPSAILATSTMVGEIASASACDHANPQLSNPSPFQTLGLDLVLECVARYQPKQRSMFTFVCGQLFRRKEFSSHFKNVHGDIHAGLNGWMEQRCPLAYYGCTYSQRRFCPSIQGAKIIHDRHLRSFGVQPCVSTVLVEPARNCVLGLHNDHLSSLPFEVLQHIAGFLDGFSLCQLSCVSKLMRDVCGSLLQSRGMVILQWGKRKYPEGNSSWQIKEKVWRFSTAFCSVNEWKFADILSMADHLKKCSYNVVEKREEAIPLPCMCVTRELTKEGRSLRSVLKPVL
UniProt Q52LJ0: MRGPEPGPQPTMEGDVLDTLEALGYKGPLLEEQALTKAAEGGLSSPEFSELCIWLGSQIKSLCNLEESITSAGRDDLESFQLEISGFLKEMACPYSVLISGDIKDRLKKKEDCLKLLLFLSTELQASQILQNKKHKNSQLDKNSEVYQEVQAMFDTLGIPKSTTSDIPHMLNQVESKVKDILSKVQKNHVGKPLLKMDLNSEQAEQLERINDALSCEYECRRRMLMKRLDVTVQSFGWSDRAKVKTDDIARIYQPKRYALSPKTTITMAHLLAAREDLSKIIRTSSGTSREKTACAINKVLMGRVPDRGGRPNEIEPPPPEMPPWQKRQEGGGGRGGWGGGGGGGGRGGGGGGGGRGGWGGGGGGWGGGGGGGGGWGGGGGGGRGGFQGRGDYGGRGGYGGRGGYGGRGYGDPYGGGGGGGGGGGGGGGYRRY

Experiments:
Assay in all cases: log2 fold change, soluble protein after heating vs DMSO (PISA); higher = thermal stabilisation; K562 lysate, 10 uM; active = over 0.2 and 3.5 SD of the protein, either way, in both replicates (recomputed)
[1] = compound: Cc1cn(-c2cc(NC(=O)c3ccc(C)c(Nc4nccc(-c5cccnc5)n4)c3)cc(C(F)(F)F)c2)cn1 [nilotinib]
In short: (§1)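 K562 pellets were dounce-homogenised in PBS pH 7.4 containing 1 mM MgCl2, and the crude extract, at 1 mg/mL protein, was exposed to 10 μM compound for 30 min. Aliquots were heated for 3 min across 48°C-58°C, pooled, brought to 0.5% NP-40 at 4°C and spun at 21,000xg for 90 min, with the supernatant taken as soluble protein. TMTpro 16plex LC-MS/MS with equalised channel sums quantified that protein. Values are log-two fold changes in thermal stability relative to solvent controls, taken from duplicates.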

[2] = compound: Cc1nc(Nc2n[nH]c3c2CN(C(=O)N[C@H](CN(C)C)c2ccccc2)C3(C)C)c2sccc2n1
In short: as §1

[3] = compound: Cc1nc(Nc2ncc(C(=O)Nc3c(C)cccc3Cl)s2)cc(N2CCN(CCO)CC2)n1 [dasatinib]
In short: as §1

[4] = compound: Cc1ncc(-c2ccnc(Nc3ccc(S(C)(=O)=O)cc3)n2)n1C(C)C
In short: as §1

[5] = compound: Cn1cc(-c2ccc3c(c2)CCN3C(=O)Cc2cccc(C(F)(F)F)c2)c2c(N)ncnc21
In short: as §1

[6] = compound: Cn1cc(CNCC2CCN(c3ncc(C(=O)NO)cn3)CC2)c2ccccc21 [quisinostat]
In short: as §1

[7] = compound: Cn1cncc1[C@@](N)(c1ccc(Cl)cc1)c1ccc2c(c1)c(-c1cccc(Cl)c1)cc(=O)n2C [tipifarnib]
In short: as §1

[8] = compound: NC(=O)Nc1cc(-c2cccc(F)c2)sc1C(=O)N[C@H]1CCCNC1
In short: as §1

[9] = compound: NC(=O)c1cnc(N[C@@H]2CCCC[C@@H]2N)nc1Nc1cccc(-n2nccn2)c1
In short: as §1

[10] = compound: NC1(c2ccc(-c3nc4ccn5c(=O)[nH]nc5c4cc3-c3ccccc3)cc2)CCC1
In short: as §1

Measured: log2 fold change

FLYWCH2 (UniProt Q96CP2)
inactive: [1] 0.044 | [2] -0.012 | [3] 0.032 | [4] -0.033 | [5] -0.007 | [6] -0.017 | [7] -0.033 | [8] -0.024 | [9] -0.016 | [10] 0.043

FAT3 isoform 1 (UniProt Q8TDW7)
inactive: [1] -0.044 | [2] 0.043 | [3] 0.014 | [4] -0.034 | [5] 0.004 | [6] -0.028 | [7] -0.065 | [8] -0.011 | [9] -0.015 | [10] 0.035

FHL2 (UniProt Q14192)
inactive: [1] 0.016 | [2] 0.054 | [3] -0.032 | [4] 0.039 | [5] 0.019 | [6] 0.012 | [7] -0.018 | [8] -0.067 | [9] -0.037 | [10] 0.006

FBXO2 (UniProt Q9UK22)
inactive: [1] 0.036 | [2] -0.014 | [3] 0.015 | [4] -0.094 | [5] 0.025 | [6] 0.044 | [7] -0.027 | [8] -0.018 | [9] -0.043 | [10] 0.045

FIS1 (UniProt Q9Y3D6)
inactive: [1] 0.018 | [2] 0.037 | [3] 0.042 | [4] -0.011 | [5] -0.062 | [6] -0.043 | [7] -0.019 | [8] -0.051 | [9] -0.057 | [10] 0.001

FAM98C (UniProt Q17RN3)
inactive: [1] 0.214 | [2] -0.059 | [3] 0.034 | [4] 0.015 | [5] -0.161 | [6] -0.183 | [7] -0.141 | [8] 0.13 | [9] 0.199 | [10] -0.07

2 records drawn at random from the list so far, as already listed:
FAT3 isoform 1 (UniProt Q8TDW7)
inactive: [1] -0.044 | [2] 0.043 | [3] 0.014 | [4] -0.034 | [5] 0.004 | [6] -0.028 | [7] -0.065 | [8] -0.011 | [9] -0.015 | [10] 0.035

FHL2 (UniProt Q14192)
inactive: [1] 0.016 | [2] 0.054 | [3] -0.032 | [4] 0.039 | [5] 0.019 | [6] 0.012 | [7] -0.018 | [8] -0.067 | [9] -0.037 | [10] 0.006

Next part:

FGD6 (UniProt Q6ZV73)
inactive: [1] -0.004 | [2] -0.169 | [3] 0.176 | [4] 0.107 | [5] 0.11 | [6] -0.105 | [7] -0.554 | [8] 0.064 | [9] 0.396 | [10] -0.061

FNIP1 isoform 3 (UniProt Q8TF40)
inactive: [1] -0.021 | [2] -0.022 | [3] 0.009 | [4] -0.082 | [5] -0.063 | [6] 0.024 | [7] 0.007 | [8] 0.02 | [9] -0.021 | [10] 0.028

FCHO2 (UniProt Q0JRZ9)
inactive: [1] -0.029 | [2] -0.022 | [3] 0.074 | [4] 0.03 | [5] -0.041 | [6] -0.017 | [7] -0.024 | [8] 0.001 | [9] -0.006 | [10] 0.033

FGFR1OP (UniProt O95684)
inactive: [1] 0.008 | [2] -0.044 | [3] -0.019 | [4] 0.01 | [5] -0.02 | [6] -0.043 | [7] -0.008 | [8] -0.02 | [9] -0.011 | [10] -0.013

FKBP4 (UniProt Q02790)
inactive: [1] 0.016 | [2] 0.009 | [3] 0.002 | [4] 0.004 | [5] -0.014 | [6] 0.044 | [7] 0.03 | [8] -0.001 | [9] -0.019 | [10] 0.038

FN3K (UniProt Q9H479)
inactive: [1] 0.016 | [2] -0.019 | [3] 0.01 | [4] -0.02 | [5] -0.017 | [6] -0.06 | [7] 0.008 | [8] 0.004 | [9] 0.005 | [10] -0.015

FBXO3 (UniProt Q9UK99)
inactive: [1] -0.027 | [2] 0.056 | [3] -0.027 | [4] 0.049 | [5] 0.034 | [6] 0.015 | [7] -0.038 | [8] 0.045 | [9] 0.008 | [10] 0.015

FBXO9 (UniProt Q9UK97)
inactive: [1] -0.076 | [2] 0.003 | [3] 0.059 | [4] 0.02 | [5] 0.021 | [6] -0.045 | [7] -0.092 | [8] 0.177 | [9] 0.127 | [10] 0.127

FLAD1 (UniProt Q8NFF5)
inactive: [1] 0.051 | [2] -0.026 | [3] 0.002 | [4] 0.024 | [5] 0.019 | [6] -0.129 | [7] 0 | [8] 0.03 | [9] 0.017 | [10] -0.026

FGF13 isoform 3 (UniProt Q92913)
inactive: [1] 0.008 | [2] -0.08 | [3] 0.038 | [4] 0.028 | [5] -0.015 | [6] -0.004 | [7] 0.013 | [8] -0.001 | [9] 0.043 | [10] -0.061

FCHO1 (UniProt O14526)
inactive: [1] 0.007 | [2] -0.02 | [3] -0.022 | [4] 0.035 | [5] 0.02 | [6] 0.013 | [7] -0.025 | [8] 0.063 | [9] 0.006 | [10] 0.007

FBXW9 (UniProt Q5XUX1)
inactive: [1] -0.052 | [2] 0.004 | [3] -0.012 | [4] 0.065 | [5] -0.027 | [6] -0.239 | [7] 0.024 | [8] 0.023 | [9] 0.004 | [10] -0.028

FDXR isoform 7 (UniProt P22570)
inactive: [1] -0.001 | [2] -0.012 | [3] -0.026 | [4] -0.027 | [5] 0.035 | [6] 0.007 | [7] 0.038 | [8] 0.028 | [9] 0.002 | [10] -0.044

FANCL isoform 2 (UniProt Q9NW38)
inactive: [1] -0.071 | [2] -0.043 | [3] -0.02 | [4] 0.009 | [5] -0.137 | [6] 0.104 | [7] -0.098 | [8] 0.043 | [9] 0.327 | [10] -0.026

FNBP4 isoform 2 (UniProt Q8N3X1)
inactive: [1] -0.006 | [2] 0.011 | [3] -0.006 | [4] 0.004 | [5] 0.011 | [6] -0.07 | [7] -0.025 | [8] -0.019 | [9] 0.023 | [10] 0.019

FHOD1 (UniProt Q9Y613)
inactive: [1] 0.005 | [2] 0.017 | [3] -0.05 | [4] -0.007 | [5] 0.002 | [6] 0.017 | [7] -0.017 | [8] 0.039 | [9] 0.014 | [10] 0.023

FBXO30 (UniProt Q8TB52)
inactive: [1] 0.015 | [2] -0.032 | [3] 0.012 | [4] 0.067 | [5] 0.02 | [6] 0.001 | [7] 0.012 | [8] -0.008 | [9] -0.017 | [10] 0.005

FLNA (UniProt P21333)
inactive: [1] 0.004 | [2] 0.001 | [3] -0.029 | [4] 0.016 | [5] -0.049 | [6] 0.009 | [7] 0.006 | [8] -0.017 | [9] -0.015 | [10] 0.015

FLNC (UniProt Q14315)
inactive: [1] 0.006 | [2] 0.005 | [3] 0.007 | [4] 0.006 | [5] -0.034 | [6] 0.003 | [7] 0.009 | [8] -0.019 | [9] -0.017 | [10] 0.01

FEM1B (UniProt Q9UK73)
inactive: [1] 0.004 | [2] 0.014 | [3] -0.007 | [4] -0.053 | [5] 0.018 | [6] -0.113 | [7] -0.083 | [8] 0.002 | [9] 0.033 | [10] 0.002

FAM98B (UniProt Q52LJ0)
inactive: [1] 0.02 | [2] -0.052 | [3] 0.01 | [4] 0.017 | [5] -0.022 | [6] -0.109 | [7] -0.058 | [8] -0.031 | [9] 0.034 | [10] -0.005

FKBP1A (UniProt P62942)
inactive: [1] 0.023 | [2] 0.002 | [3] -0.005 | [4] 0.081 | [5] -0.103 | [6] 0.012 | [7] 0.038 | [8] -0.005 | [9] 0.002 | [10] -0.039
